# Assay results: PubChem BioAssay AID2685 (National Center for Advancing Translational Sciences (NCATS), 2010)
# Some of the results follow. The main result of the screen is listed elsewhere. These columns were measured beside it and carry no call. Most of these compounds were active or inconclusive in the main read-out, so they are no random draw. The note in brackets gives the kind of curve behind each potency; many fits are weak.
# Assay: qHTS Assay for Lipid Storage Modulators in Drosophila S3 Cells;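 as to cell number change: cells counted by Cell Tracker Red CMTPX staining in the red channel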
# Conditions: BODIPY lipid droplet fluorescence, 18-24 h; for cell number change: measured here: cell count max response, cells fed with added oleic acid
# Method in brief: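 Drosophila S3 cells loaded with oleic acid (400 uM, as added) and compounds at several concentrations; lipid droplets imaged by 488-nm laser-scanning cytometry, 500–530 nm intensity and object ratio to cell channel. Percent activity normalized to 20 uM Triacsin C.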
# [1] = measured here: lipid fluorescence (Fed channel) AC50, cells fed with added oleic acid
# [2] = measured here: cell number channel AC50, cells fed with added oleic acid
Compound,cell number change,AC50 [1],AC50 [2]
COc1ccc(NC(=O)c2oc3ccccc3c2NC(=O)COc2ccccc2OC)c(OC)c1,-20.2%,"0.00461 µM [falling, full curve, poor fit]",–
CN1OC(COC(=O)c2ccccc2)CC1c1ccccc1 (centres undefined),7.85%,"1.16 µM [falling, full curve, poor fit]",–
CN(C)CCOC(C1CCCCC1)C1CCCCC1,8.68%,"20.6 µM [rising, single point]",–
CN1CCN(C(=O)CCc2nc3ccccc3c(=O)[nH]2)CC1,-28.3%,"25.9 µM [falling, single point]","3.26 µM [falling, full curve, poor fit]"
Fc1ccc(-n2ncc3c(SCc4cccnc4)ncnc32)cc1,–,"29.1 µM [falling, single point]",–
Cn1nnnc1SCc1ccc(Cl)cc1,32.2%,–,"2.59 µM [rising, partial curve]"
CCN(CC(=O)Nc1c(F)cccc1F)C(=O)CNC(=O)c1sc2ccccc2c1Cl,-3.68%,"23.1 µM [falling, partial curve, poor fit]",–
CCN(CC)S(=O)(=O)c1cc(C(=O)Nc2cc(C)on2)ccc1Cl,21.8%,"0.116 µM [falling, single point]",–
Cc1nc(SCC#N)c2c3c(sc2n1)CCC3,3.52%,"0.82 µM [rising, single point]",–
CN(CC(=O)Nc1cccc(F)c1)C(=O)C1CC(=O)N(Cc2ccco2)C1 (centres undefined),2.99%,"29.1 µM [falling, single point]",–
CCCCc1nnc(NC(=O)C(C)Sc2nc(N)cc(=O)[nH]2)s1 (centres undefined),24%,"6.51 µM [falling, single point]",–
O=C(O)CC1NCCc2ccccc21 (centres undefined),-9.78%,"0.58 µM [falling, single point]",–
O=C(O)c1ccc(-n2nnnc2SCc2ccccc2F)cc1,-36.7%,"6.51 µM [falling, partial curve, poor fit]","4.61 µM [falling, single point]"
CCn1cc(C(=O)OCC(=O)Nc2cccc(C)c2)c(=O)c2ccc(C)nc21,16.7%,–,–
CC(=O)Oc1ccc(N(C(C)=O)S(=O)(=O)c2ccc3ccccc3c2)cc1,-21.3%,"0.231 µM [falling, full curve, poor fit]",–
CCCS(=O)(=O)c1ccc(COC(=O)c2cccc(NC(=O)C(C)C)c2)cc1,2.7%,"5.62 µM [falling, single point]",–
CSCC[C@H](NC(=O)[C@@H]1CSC2c3ccccc3C(=O)N21)C(=O)N1CCC[C@H]1CO (some centres undefined),-7.77%,"18.4 µM [rising, single point]",–

# Not a retest: an excerpt of the list.
Compound,cell number change,AC50 [1],AC50 [2]
CN(C)CCOC(C1CCCCC1)C1CCCCC1,8.68%,"20.6 µM [rising, single point]",–
CN1CCN(C(=O)CCc2nc3ccccc3c(=O)[nH]2)CC1,-28.3%,"25.9 µM [falling, single point]","3.26 µM [falling, full curve, poor fit]"
Fc1ccc(-n2ncc3c(SCc4cccnc4)ncnc32)cc1,–,"29.1 µM [falling, single point]",–
Cn1nnnc1SCc1ccc(Cl)cc1,32.2%,–,"2.59 µM [rising, partial curve]"
CCN(CC(=O)Nc1c(F)cccc1F)C(=O)CNC(=O)c1sc2ccccc2c1Cl,-3.68%,"23.1 µM [falling, partial curve, poor fit]",–
